PubChem BioAssay AID1259291 – Sanger Institute – 2017
In all, the deposit lists 794 reagents; below is a part drawn at random. 15 of them (1.9%) count as active. 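Calls rest on knock-down alone; drug synergy scores do not affect them; drugs added a day post-transfection, DMSO vehicle as comparison.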 Viability is capped at 1. Not given: the amount of reagent, the time to read-out.

- Screen: 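Genes needed for HT29 colorectal cancer cell survival or for sensitivity to drugs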 (primary screen)
- Cells: HT29 human colorectal cancer cells
- Knock-down reagent: siRNA pool against human genes
- Treatment: anchor drugs added a day after transfection: BYL719 at 1 µM, cetuximab at 5 µg/ml or trametinib at 10 nM, or DMSO vehicle alone
- Read-out: 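Replicate-averaged viability relative to non-targeting pool, robust z-score based on control wells, plus per-drug synergy score for 1 µM BYL719, 5 µg/ml cetuximab and 10 nM trametinib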
- Reading the numbers: robust z-score, knock-down alone and viability, knock-down alone: higher = more viable cells; synergy score with BYL719 and synergy score with cetuximab and synergy score with trametinib: higher = stronger synergistic killing with drug
- Hit rule: 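a knock-down alone scoring under -3 on robust z-score is called essential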
- Calls: active = essential (knock-down alone); inactive = no change alone

The opening 4 entries, ahead of the listing:
| Gene | PubChem SID | robust z-score, knock-down alone | viability, knock-down alone (fraction of control) | synergy score with BYL719 | synergy score with cetuximab | synergy score with trametinib | Call |
| --- | --- | --- | --- | --- | --- | --- | --- |
| PTGS1 (prostaglandin-endoperoxide synthase 1) | SID134310518 | -0.543 | 0.932 | 0.0879 | 0.0968 | 0.0435 | inactive |
| PIM1 (Pim-1 proto-oncogene, serine/threonine kinase) | SID56478736 | 0.547 | 1 | 0.175 | 0.0281 | 0.158 | inactive |
| IKBKB (inhibitor of nuclear factor kappa B kinase subunit beta) | SID152150353 | 0.106 | 0.972 | -0.0672 | 0.0256 | 0.119 | inactive |
| CDC42BPG (CDC42 binding protein kinase gamma) | SID135621430 | 0.552 | 1 | -0.143 | 0 | -0.0768 | inactive |

The listing, from the first entry:
| Gene | PubChem SID | robust z-score, knock-down alone | viability, knock-down alone (fraction of control) | synergy score with BYL719 | synergy score with cetuximab | synergy score with trametinib | Call |
| --- | --- | --- | --- | --- | --- | --- | --- |
| PTGS1 (prostaglandin-endoperoxide synthase 1) | SID134310518 | -0.543 | 0.932 | 0.0879 | 0.0968 | 0.0435 | inactive |
| PIM1 (Pim-1 proto-oncogene, serine/threonine kinase) | SID56478736 | 0.547 | 1 | 0.175 | 0.0281 | 0.158 | inactive |
| IKBKB (inhibitor of nuclear factor kappa B kinase subunit beta) | SID152150353 | 0.106 | 0.972 | -0.0672 | 0.0256 | 0.119 | inactive |
| CDC42BPG (CDC42 binding protein kinase gamma) | SID135621430 | 0.552 | 1 | -0.143 | 0 | -0.0768 | inactive |
| RIPK4 (receptor interacting serine/threonine kinase 4) | SID135620968 | 0.552 | 1 | -0.152 | 0.0292 | 0.0665 | inactive |
| KHK (ketohexokinase) | SID135621242 | 0.552 | 1 | -0.106 | 0 | 0.0424 | inactive |
| PRAG1 (PEAK1 related, kinase-activating pseudokinase 1) | SID152147410 | -1.14 | 0.895 | 0.0929 | 0.00678 | 0.2 | inactive |
| TNIK (TRAF2 and NCK interacting kinase) | SID152153870 | 0.357 | 0.988 | -0.0172 | 0.0251 | -0.0161 | inactive |
| STK4 (serine/threonine kinase 4) | SID56478776 | -0.9 | 0.91 | -0.0637 | -0.0631 | -0.0337 | inactive |
| FGFR3 (fibroblast growth factor receptor 3) | SID56478513 | -2.08 | 0.837 | -0.0388 | -0.163 | -0.0213 | inactive |
| PRP4K (pre-mRNA processing factor kinase PRP4K) | SID152152780 | -0.401 | 0.941 | 0.0323 | 0.0613 | 0.0154 | inactive |
| CHKB (choline kinase beta) | SID56479083 | 0.552 | 1 | -0.0748 | 0 | -0.229 | inactive |
| HIPK4 (homeodomain interacting protein kinase 4) | SID135620890 | 0.552 | 1 | -0.0642 | 0 | -0.0487 | inactive |
| TSKS (testis specific serine kinase substrate) | SID56479267 | -0.56 | 0.931 | -0.0223 | 0.0387 | -0.159 | inactive |
| NEK10 (NIMA related kinase 10) | SID56478763 | -1.56 | 0.869 | -0.0297 | -0.131 | 0.115 | inactive |
| ELF3 (E74 like ETS transcription factor 3) | SID135623079 | -1.7 | 0.86 | 0.0238 | -0.0112 | 0.0952 | inactive |
| SMC1A (structural maintenance of chromosomes 1A) | SID134311995 | 0.552 | 1 | 0.119 | 0.0143 | 0.0713 | inactive |
| PIM2 (Pim-2 proto-oncogene, serine/threonine kinase) | SID56479034 | -0.17 | 0.955 | -0.0427 | -0.0449 | 0.0848 | inactive |
| CDK3 (cyclin dependent kinase 3) | SID56478597 | 0.552 | 1 | 0.0643 | 0.0301 | 0.0285 | inactive |
| MARK4 (microtubule affinity regulating kinase 4) | SID56479022 | 0.104 | 0.972 | 0.0543 | 0.0195 | 0.0207 | inactive |
| PIP5KL1 (phosphatidylinositol-4-phosphate 5-kinase like 1) | SID56479217 | 0.552 | 1 | 0.0839 | 0.0678 | 0.0276 | inactive |
| GALK1 (galactokinase 1) | SID56479189 | 0.552 | 1 | 0.126 | 0.253 | -0.0665 | inactive |
| PDGFRB (platelet derived growth factor receptor beta) | SID152152554 | 0.552 | 1 | 0.131 | 0.184 | -0.0148 | inactive |
| ROS1 (ROS proto-oncogene 1, receptor tyrosine kinase) | SID56478551 | -0.583 | 0.93 | 0.0292 | -0.0705 | 0.0621 | inactive |
| COMMD3 (COMM domain containing 3) | SID152155344 | -1.67 | 0.862 | 0.0673 | -0.0527 | 0.0331 | inactive |
| CHEK2 (checkpoint kinase 2) | SID152153325 | 0.552 | 1 | 0.0778 | 0.078 | 0.0869 | inactive |
| ERN1 (endoplasmic reticulum to nucleus signaling 1) | SID135620914 | 0.552 | 1 | -0.0953 | 0.0468 | 0.143 | inactive |
| ABL1 (ABL proto-oncogene 1, non-receptor tyrosine kinase) | SID135620610 | 0.552 | 1 | 0.0192 | 0.0452 | -0.00451 | inactive |
| MAPKAPK5 (MAPK activated protein kinase 5) | SID56478947 | 0.0593 | 0.969 | 0.0794 | 0.019 | -0.0563 | inactive |
| HK2 (hexokinase 2) | SID56479103 | -1.47 | 0.874 | -0.0183 | -0.0831 | 0.0339 | inactive |
| BLK (BLK proto-oncogene, Src family tyrosine kinase) | SID56478485 | 0.552 | 1 | -0.045 | 0.0859 | -0.0642 | inactive |
| GUCY2EP (guanylate cyclase 2E, pseudogene) | SID152152788 | -0.696 | 0.923 | -0.116 | -0.0204 | -0.0266 | inactive |
| RPS6KB1 (ribosomal protein S6 kinase B1) | SID152147142 | 0.552 | 1 | 0.0545 | 0.0272 | -0.079 | inactive |
| ALPK2 (alpha kinase 2) | SID152151764 | 0.552 | 1 | -0.0765 | 0 | 0.0337 | inactive |
